Experimental data reported in the supplement of paper PMC6411743.
± gives the standard deviation of the averaged measurements. The list shows a part of the results.

Chains of the proteins cited; added tags and fusions are not shown. Lines headed by an entry give the natural chain unless they say otherwise; changes in a name come on top.
UniProt O14744, whole entry: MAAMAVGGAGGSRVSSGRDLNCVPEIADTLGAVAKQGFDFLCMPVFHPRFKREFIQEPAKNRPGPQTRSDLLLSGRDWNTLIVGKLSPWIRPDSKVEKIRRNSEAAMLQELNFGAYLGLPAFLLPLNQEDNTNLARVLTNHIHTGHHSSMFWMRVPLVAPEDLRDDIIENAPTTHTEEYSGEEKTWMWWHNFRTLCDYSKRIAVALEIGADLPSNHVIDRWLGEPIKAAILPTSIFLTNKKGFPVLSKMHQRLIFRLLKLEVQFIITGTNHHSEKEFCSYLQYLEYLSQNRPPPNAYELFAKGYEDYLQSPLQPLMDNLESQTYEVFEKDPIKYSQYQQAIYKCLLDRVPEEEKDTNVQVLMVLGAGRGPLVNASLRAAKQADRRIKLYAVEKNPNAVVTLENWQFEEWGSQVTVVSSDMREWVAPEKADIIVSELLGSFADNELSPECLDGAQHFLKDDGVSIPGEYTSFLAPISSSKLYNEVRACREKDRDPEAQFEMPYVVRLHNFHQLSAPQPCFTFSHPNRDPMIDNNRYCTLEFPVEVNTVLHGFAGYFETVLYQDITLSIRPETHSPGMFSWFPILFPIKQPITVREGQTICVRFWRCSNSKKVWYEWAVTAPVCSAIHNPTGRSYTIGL
UniProt O43776: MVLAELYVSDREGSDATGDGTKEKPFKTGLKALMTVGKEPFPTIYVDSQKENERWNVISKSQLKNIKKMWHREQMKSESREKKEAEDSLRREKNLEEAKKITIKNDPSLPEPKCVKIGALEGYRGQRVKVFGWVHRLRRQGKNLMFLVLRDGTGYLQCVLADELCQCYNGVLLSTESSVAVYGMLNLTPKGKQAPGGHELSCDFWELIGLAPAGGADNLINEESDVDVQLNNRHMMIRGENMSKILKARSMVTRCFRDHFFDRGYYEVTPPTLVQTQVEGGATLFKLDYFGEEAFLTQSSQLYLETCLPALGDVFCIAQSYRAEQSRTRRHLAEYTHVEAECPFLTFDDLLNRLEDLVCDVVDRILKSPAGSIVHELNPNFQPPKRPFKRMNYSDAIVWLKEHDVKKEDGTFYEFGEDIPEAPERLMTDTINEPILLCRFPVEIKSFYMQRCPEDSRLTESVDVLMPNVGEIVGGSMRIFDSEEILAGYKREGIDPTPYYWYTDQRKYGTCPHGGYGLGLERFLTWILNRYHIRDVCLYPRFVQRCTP
UniProt O15269: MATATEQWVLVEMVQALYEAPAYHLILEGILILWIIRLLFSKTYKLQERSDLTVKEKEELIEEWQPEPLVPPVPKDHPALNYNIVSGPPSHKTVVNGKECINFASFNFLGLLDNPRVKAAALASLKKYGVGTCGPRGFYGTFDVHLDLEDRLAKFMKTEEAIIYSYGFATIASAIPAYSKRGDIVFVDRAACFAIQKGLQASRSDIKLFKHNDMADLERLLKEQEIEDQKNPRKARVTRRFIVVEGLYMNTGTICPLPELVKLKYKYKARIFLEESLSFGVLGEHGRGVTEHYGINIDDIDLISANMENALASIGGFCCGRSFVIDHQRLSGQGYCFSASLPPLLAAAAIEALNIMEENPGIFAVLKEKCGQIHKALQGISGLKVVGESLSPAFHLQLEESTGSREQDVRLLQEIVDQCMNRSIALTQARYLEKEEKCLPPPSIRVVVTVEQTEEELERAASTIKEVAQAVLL
UniProt O15047, whole entry: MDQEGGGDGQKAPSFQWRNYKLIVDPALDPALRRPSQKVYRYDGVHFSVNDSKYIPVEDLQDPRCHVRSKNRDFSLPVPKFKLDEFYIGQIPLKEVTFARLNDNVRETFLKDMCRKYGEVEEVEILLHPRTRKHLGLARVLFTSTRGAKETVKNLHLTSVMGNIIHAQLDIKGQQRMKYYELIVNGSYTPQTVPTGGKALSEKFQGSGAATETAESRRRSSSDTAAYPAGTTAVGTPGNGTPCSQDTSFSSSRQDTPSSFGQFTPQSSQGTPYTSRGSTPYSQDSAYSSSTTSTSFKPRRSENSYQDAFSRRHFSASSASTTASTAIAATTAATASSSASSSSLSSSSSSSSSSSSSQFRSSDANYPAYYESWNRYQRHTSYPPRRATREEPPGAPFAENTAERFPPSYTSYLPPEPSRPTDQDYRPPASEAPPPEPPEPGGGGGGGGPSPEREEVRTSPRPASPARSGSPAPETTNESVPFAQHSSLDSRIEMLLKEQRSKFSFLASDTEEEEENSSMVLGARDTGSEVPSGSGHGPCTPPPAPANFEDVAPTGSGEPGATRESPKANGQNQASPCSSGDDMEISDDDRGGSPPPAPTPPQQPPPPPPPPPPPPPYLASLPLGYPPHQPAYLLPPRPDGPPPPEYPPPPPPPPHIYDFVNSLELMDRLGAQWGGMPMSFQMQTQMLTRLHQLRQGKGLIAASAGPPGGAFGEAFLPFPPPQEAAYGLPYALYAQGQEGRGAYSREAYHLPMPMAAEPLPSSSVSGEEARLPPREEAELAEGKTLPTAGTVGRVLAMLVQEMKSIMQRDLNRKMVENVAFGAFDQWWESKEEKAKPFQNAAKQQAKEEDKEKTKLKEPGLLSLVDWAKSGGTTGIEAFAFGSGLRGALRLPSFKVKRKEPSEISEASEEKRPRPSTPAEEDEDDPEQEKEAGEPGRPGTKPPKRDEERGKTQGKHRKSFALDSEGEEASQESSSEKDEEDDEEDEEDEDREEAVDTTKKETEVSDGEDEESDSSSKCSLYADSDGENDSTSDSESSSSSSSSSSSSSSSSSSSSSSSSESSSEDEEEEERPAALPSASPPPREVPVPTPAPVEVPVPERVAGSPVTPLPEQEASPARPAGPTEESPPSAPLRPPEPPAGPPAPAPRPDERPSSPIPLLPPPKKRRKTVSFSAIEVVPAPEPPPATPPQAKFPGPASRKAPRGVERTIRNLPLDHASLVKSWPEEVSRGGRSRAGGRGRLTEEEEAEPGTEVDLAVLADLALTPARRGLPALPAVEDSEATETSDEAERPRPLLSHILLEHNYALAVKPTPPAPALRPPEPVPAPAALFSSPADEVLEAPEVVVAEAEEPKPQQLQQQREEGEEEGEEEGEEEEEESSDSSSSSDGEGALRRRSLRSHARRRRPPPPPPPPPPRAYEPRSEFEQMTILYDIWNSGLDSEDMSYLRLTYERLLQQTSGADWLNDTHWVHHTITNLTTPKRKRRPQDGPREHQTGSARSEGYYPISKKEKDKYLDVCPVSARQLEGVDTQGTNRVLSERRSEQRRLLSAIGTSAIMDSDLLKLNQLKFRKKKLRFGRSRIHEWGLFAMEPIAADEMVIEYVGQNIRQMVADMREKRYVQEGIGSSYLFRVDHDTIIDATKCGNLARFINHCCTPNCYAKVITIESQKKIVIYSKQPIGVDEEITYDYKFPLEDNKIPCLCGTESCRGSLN
UniProt O15305: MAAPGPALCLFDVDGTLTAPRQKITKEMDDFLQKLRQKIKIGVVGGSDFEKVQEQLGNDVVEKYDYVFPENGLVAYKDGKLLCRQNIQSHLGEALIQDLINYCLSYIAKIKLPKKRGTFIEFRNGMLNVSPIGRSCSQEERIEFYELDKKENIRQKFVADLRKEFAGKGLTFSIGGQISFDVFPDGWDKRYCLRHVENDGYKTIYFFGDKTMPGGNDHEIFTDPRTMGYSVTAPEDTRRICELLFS
UniProt O60884: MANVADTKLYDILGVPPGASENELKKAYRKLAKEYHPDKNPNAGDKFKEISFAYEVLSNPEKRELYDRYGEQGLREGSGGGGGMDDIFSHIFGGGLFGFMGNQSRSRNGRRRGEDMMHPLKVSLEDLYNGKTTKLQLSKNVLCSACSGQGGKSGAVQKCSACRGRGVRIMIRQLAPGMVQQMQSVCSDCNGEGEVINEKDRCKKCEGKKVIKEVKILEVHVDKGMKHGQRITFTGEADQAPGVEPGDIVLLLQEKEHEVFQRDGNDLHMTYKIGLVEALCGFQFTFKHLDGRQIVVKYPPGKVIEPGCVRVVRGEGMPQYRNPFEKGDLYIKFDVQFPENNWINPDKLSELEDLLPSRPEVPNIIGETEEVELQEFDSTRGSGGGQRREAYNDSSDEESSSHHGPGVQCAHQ
UniProt O43488: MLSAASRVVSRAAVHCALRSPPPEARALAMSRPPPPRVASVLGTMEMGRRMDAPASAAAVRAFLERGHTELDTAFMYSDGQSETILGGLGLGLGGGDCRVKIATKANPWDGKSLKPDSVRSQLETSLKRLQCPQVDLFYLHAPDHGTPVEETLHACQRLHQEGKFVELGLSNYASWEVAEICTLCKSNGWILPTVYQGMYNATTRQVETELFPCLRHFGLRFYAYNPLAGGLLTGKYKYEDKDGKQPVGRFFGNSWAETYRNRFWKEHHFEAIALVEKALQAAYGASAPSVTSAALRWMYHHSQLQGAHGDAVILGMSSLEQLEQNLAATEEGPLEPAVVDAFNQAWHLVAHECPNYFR
UniProt O00116: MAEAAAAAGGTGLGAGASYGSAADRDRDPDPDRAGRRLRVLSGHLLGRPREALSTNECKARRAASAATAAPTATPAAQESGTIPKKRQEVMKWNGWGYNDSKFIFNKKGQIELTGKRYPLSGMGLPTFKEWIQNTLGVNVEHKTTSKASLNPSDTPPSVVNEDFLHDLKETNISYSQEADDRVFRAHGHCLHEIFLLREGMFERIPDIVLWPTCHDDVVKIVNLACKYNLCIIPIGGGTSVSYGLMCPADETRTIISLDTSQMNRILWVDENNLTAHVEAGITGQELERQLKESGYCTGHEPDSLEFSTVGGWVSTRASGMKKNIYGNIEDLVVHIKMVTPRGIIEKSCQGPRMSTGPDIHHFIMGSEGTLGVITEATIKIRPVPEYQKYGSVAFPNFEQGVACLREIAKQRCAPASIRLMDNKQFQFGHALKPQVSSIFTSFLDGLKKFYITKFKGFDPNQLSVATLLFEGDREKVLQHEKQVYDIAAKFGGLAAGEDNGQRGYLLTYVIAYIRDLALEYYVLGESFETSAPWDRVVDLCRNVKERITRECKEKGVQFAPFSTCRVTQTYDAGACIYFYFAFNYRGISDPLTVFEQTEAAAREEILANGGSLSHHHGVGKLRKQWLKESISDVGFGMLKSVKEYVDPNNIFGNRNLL
UniProt O14908: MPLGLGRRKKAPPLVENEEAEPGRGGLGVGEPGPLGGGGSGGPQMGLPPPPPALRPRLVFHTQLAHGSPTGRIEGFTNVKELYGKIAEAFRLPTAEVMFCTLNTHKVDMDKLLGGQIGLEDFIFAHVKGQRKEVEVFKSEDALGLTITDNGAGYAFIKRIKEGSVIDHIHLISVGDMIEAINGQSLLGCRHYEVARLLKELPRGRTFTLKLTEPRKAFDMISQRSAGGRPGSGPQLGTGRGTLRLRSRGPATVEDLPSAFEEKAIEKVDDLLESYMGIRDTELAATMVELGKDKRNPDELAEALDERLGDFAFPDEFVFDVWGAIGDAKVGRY
UniProt O43291: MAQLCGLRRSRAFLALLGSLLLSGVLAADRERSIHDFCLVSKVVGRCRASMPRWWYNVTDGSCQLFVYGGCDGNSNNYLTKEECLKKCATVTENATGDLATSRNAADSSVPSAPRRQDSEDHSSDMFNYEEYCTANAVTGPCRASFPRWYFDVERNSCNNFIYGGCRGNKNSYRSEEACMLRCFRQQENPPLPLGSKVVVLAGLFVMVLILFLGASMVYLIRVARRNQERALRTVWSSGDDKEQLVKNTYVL
UniProt O60256: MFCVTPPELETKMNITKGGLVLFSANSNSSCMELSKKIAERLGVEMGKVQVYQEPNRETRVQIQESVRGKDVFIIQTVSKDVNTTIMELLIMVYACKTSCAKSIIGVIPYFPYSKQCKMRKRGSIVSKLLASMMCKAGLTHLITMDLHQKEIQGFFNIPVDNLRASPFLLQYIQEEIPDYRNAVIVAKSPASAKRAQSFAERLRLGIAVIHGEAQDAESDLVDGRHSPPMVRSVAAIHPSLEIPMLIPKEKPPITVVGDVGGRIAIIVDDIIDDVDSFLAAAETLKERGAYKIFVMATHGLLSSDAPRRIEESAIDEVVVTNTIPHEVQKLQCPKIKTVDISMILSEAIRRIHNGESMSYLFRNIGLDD
UniProt O00483, whole entry: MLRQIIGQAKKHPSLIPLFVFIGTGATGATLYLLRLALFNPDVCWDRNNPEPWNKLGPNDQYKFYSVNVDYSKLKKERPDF
UniProt O43765: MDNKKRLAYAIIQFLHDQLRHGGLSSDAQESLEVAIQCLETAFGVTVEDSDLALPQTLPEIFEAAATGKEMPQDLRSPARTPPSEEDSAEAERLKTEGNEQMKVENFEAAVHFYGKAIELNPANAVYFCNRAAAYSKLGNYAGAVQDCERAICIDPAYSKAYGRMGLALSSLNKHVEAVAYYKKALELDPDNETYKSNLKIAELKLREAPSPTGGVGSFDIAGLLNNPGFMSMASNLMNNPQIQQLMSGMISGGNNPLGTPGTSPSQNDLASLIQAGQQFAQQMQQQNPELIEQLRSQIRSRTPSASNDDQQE
UniProt P53680: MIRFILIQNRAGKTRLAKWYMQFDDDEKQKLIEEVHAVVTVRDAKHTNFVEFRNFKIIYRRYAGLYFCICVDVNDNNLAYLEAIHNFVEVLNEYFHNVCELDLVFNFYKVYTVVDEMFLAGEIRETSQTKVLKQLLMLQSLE

Compound: Nc1nc2c(ncn2[C@@H]2O[C@H](COP(=O)(O)OP(=O)(O)OP(=O)(O)O)[C@@H](O)[C@H]2O)c(=O)[nH]1 [guanosine triphosphate]
Test: NP40-soluble protein abundance relative to vehicle (solubility fold change) (ratio); higher = more soluble protein in presence of GTP
Procedure, shortened: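 Across three independent experiments, values are fold changes against the detergent-processed vehicle for each replicate, based on vsn-normalised intensities. The samples were Jurkat crude lysate treated with eight concentrations (0.1 to 10 mM) for 10 min at room temperature and then 3 min at 37 °C. Lysate was solubilised with 0.8% NP40 and benzonase, ultracentrifuged, and the supernatant analysed by TMT-labelled LC-MS/MS.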

| Target | NP40-soluble protein abundance (concentration: 0.1mM) | NP40-soluble protein abundance (concentration: 0.5mM) | NP40-soluble protein abundance (concentration: 1mM) | NP40-soluble protein abundance (concentration: 2mM) | NP40-soluble protein abundance (concentration: 4mM) | NP40-soluble protein abundance (concentration: 6mM) | NP40-soluble protein abundance (concentration: 8mM) | NP40-soluble protein abundance (concentration: 10mM) |
| --- | --- | --- | --- | --- | --- | --- | --- | --- |
| PRMT5 (UniProt O14744) | 1.06 ± 0.077 | 1.11 ± 0.12 | 1.04 ± 0.095 | 1.08 ± 0.16 | 1.1 ± 0.15 | 1.08 ± 0.16 | 1.06 ± 0.1 | 1.01 ± 0.11 |
| UniProt O43776 and related entries | 1.04 ± 0.018 | 1.06 ± 0.036 | 0.966 ± 0.015 | 0.955 ± 0.033 | 0.946 ± 0.037 | 0.929 ± 0.025 | 0.928 ± 0.028 | 0.905 ± 0.067 |
| O60344 and related entries (UniProt P0DPD6) | 1.02 ± 0.12 | 0.996 ± 0.13 | 0.916 ± 0.08 | 0.988 ± 0.14 | 0.959 ± 0.1 | 0.884 ± 0.12 | 0.883 ± 0.091 | 0.871 ± 0.14 |
| SPTLC1 (UniProt O15269) | 1.05 ± 0.016 | 0.983 ± 0.023 | 0.9992 ± 0.009 | 0.959 ± 0.027 | 1.025 ± 0.0098 | 0.934 ± 0.02 | 0.963 ± 0.026 | 0.901 ± 0.023 |
| M0R263 and related entries (UniProt Q92945) | 0.914 ± 0.043 | 0.909 ± 0.082 | 0.963 ± 0.079 | 0.914 ± 0.1 | 0.912 ± 0.096 | 0.919 ± 0.098 | 0.925 ± 0.078 | 0.936 ± 0.075 |
| SETD1A (UniProt O15047) | 1.03 ± 0.034 | 1.04 ± 0.075 | 1.07 ± 0.033 | 1.07 ± 0.051 | 1.06 ± 0.037 | 1.07 ± 0.052 | 1.09 ± 0.065 | 1.08 ± 0.059 |
| PMM2 (UniProt O15305) | 0.977 ± 0.022 | 0.962 ± 0.021 | 0.933 ± 0.06 | 0.896 ± 0.049 | 0.883 ± 0.074 | 0.869 ± 0.058 | 0.875 ± 0.07 | 0.85 ± 0.066 |
| DNAJA2 (UniProt O60884) | 0.969 ± 0.024 | 0.996 ± 0.028 | 1 ± 0.038 | 0.992 ± 0.015 | 1.01 ± 0.031 | 1.04 ± 0.038 | 1.04 ± 0.062 | 1.01 ± 0.041 |
| AKR7A2 (UniProt O43488) | 0.9941 ± 0.0061 | 0.973 ± 0.021 | 0.916 ± 0.027 | 0.872 ± 0.065 | 0.883 ± 0.033 | 0.872 ± 0.049 | 0.886 ± 0.029 | 0.859 ± 0.099 |
| IGF2BP3 (UniProt O00425) | 0.95 ± 0.047 | 0.962 ± 0.062 | 0.926 ± 0.053 | 0.891 ± 0.077 | 0.865 ± 0.068 | 0.884 ± 0.074 | 0.878 ± 0.058 | 0.847 ± 0.07 |
| UniProt O43665 and related entries | 0.802 ± 0.079 | 0.748 ± 0.035 | 0.872 ± 0.14 | 0.865 ± 0.068 | 0.791 ± 0.038 | 0.837 ± 0.034 | 0.79 ± 0.089 | 0.909 ± 0.14 |
| GAK (UniProt O14976) | 0.991 ± 0.057 | 1.01 ± 0.049 | 0.966 ± 0.028 | 0.991 ± 0.075 | 1 ± 0.066 | 0.986 ± 0.056 | 0.957 ± 0.06 | 1.01 ± 0.092 |
| AGPS (UniProt O00116) | 0.9782 ± 0.0089 | 1.01 ± 0.037 | 0.92 ± 0.015 | 0.925 ± 0.04 | 0.897 ± 0.045 | 0.907 ± 0.041 | 0.869 ± 0.019 | 0.852 ± 0.052 |
| RAD21 (UniProt O60216) | 0.975 ± 0.037 | 0.991 ± 0.03 | 1.06 ± 0.023 | 1.07 ± 0.044 | 1.09 ± 0.028 | 1.07 ± 0.038 | 1.11 ± 0.062 | 1.12 ± 0.092 |
| NDUFA2 (UniProt O43678) | 0.985 ± 0.13 | 1.02 ± 0.035 | 1.26 ± 0.14 | 1.18 ± 0.072 | 1.24 ± 0.093 | 1.266 ± 0.0086 | 1.25 ± 0.05 | 1.48 ± 0.057 |
| PIK3R2 (UniProt O00459) | 1.11 ± 0.17 | 1.11 ± 0.22 | 1.11 ± 0.21 | 0.982 ± 0.16 | 0.937 ± 0.19 | 0.997 ± 0.2 | 0.989 ± 0.15 | 0.967 ± 0.08 |

Two records drawn at random from the list so far, as already listed:

| Target | NP40-soluble protein abundance (concentration: 0.1mM) | NP40-soluble protein abundance (concentration: 0.5mM) | NP40-soluble protein abundance (concentration: 1mM) | NP40-soluble protein abundance (concentration: 2mM) | NP40-soluble protein abundance (concentration: 4mM) | NP40-soluble protein abundance (concentration: 6mM) | NP40-soluble protein abundance (concentration: 8mM) | NP40-soluble protein abundance (concentration: 10mM) |
| --- | --- | --- | --- | --- | --- | --- | --- | --- |
| PIK3R2 (UniProt O00459) | 1.11 ± 0.17 | 1.11 ± 0.22 | 1.11 ± 0.21 | 0.982 ± 0.16 | 0.937 ± 0.19 | 0.997 ± 0.2 | 0.989 ± 0.15 | 0.967 ± 0.08 |
| NDUFA2 (UniProt O43678) | 0.985 ± 0.13 | 1.02 ± 0.035 | 1.26 ± 0.14 | 1.18 ± 0.072 | 1.24 ± 0.093 | 1.266 ± 0.0086 | 1.25 ± 0.05 | 1.48 ± 0.057 |

Next entries follow:

| Target | NP40-soluble protein abundance (concentration: 0.1mM) | NP40-soluble protein abundance (concentration: 0.5mM) | NP40-soluble protein abundance (concentration: 1mM) | NP40-soluble protein abundance (concentration: 2mM) | NP40-soluble protein abundance (concentration: 4mM) | NP40-soluble protein abundance (concentration: 6mM) | NP40-soluble protein abundance (concentration: 8mM) | NP40-soluble protein abundance (concentration: 10mM) |
| --- | --- | --- | --- | --- | --- | --- | --- | --- |
| UniProt O60861 and related entries | 1 ± 0.02 | 1.01 ± 0.071 | 1.01 ± 0.047 | 0.94 ± 0.063 | 0.935 ± 0.035 | 0.929 ± 0.04 | 0.978 ± 0.046 | 0.888 ± 0.06 |
| UniProt O14908 and related entries | 1.01 ± 0.046 | 1.04 ± 0.052 | 0.944 ± 0.061 | 0.932 ± 0.063 | 0.889 ± 0.062 | 0.914 ± 0.054 | 0.903 ± 0.073 | 0.901 ± 0.076 |
| UniProt O43683 and related entries | 0.943 ± 0.14 | 1 ± 0.023 | 1.05 ± 0.075 | 0.932 ± 0.16 | 0.985 ± 0.093 | 0.952 ± 0.2 | 0.987 ± 0.077 | 0.929 ± 0.1 |
| UniProt O43291 | 1.02 ± 0.092 | 0.889 ± 0.082 | 0.934 ± 0.08 | 0.944 ± 0.19 | 0.902 ± 0.12 | 0.924 ± 0.018 | 0.89 ± 0.01 | 0.94 ± 0.017 |
| HMGN4 (UniProt O00479) | 1.08 ± 0.057 | 1.06 ± 0.12 | 1.02 ± 0.12 | 1.31 ± 0.04 | 1.83 ± 0.15 | 2.26 ± 0.16 | 1.51 ± 0.74 | 4.79 ± 0.19 |
| XPOT (UniProt O43592) | 1 ± 0.043 | 1.01 ± 0.071 | 0.93 ± 0.054 | 0.938 ± 0.1 | 0.946 ± 0.053 | 0.94 ± 0.069 | 0.875 ± 0.039 | 0.871 ± 0.045 |
| PRPSAP2 (UniProt O60256) | 1.06 ± 0.11 | 1.15 ± 0.19 | 1.16 ± 0.23 | 1.33 ± 0.36 | 1.33 ± 0.34 | 1.32 ± 0.37 | 1.24 ± 0.28 | 1.26 ± 0.3 |
| UniProt O60869 and related entries | 0.96 ± 0.05 | 0.959 ± 0.081 | 1 ± 0.064 | 0.969 ± 0.089 | 0.999 ± 0.15 | 1.06 ± 0.17 | 1.2 ± 0.15 | 1.3 ± 0.17 |
| NDUFA4 (UniProt O00483) | 0.934 ± 0.11 | 0.901 ± 0.071 | 0.943 ± 0.08 | 0.92 ± 0.1 | 0.906 ± 0.14 | 0.909 ± 0.091 | 0.833 ± 0.095 | 0.891 ± 0.14 |
| ZBTB24 (UniProt O43167) | 1.09 ± 0.18 | 1.09 ± 0.2 | 1.02 ± 0.21 | 1.05 ± 0.2 | 1.06 ± 0.24 | 0.976 ± 0.11 | 1 ± 0.053 | 1.08 ± 0.14 |
| PSMD11 (UniProt O00231) | 0.985 ± 0.019 | 0.991 ± 0.013 | 1.02 ± 0.033 | 1.02 ± 0.087 | 1.04 ± 0.089 | 1.02 ± 0.11 | 1.03 ± 0.092 | 0.967 ± 0.11 |
| M0R0Z3 and related entries (UniProt P35269) | 0.971 ± 0.054 | 0.973 ± 0.062 | 0.99 ± 0.057 | 0.946 ± 0.081 | 0.941 ± 0.073 | 0.949 ± 0.052 | 0.992 ± 0.022 | 0.965 ± 0.05 |
| MED14 (UniProt O60244) | 1.03 ± 0.019 | 1.12 ± 0.025 | 1.15 ± 0.22 | 1.18 ± 0.23 | 1.2 ± 0.28 | 1.16 ± 0.17 | 1.2 ± 0.27 | 1.19 ± 0.18 |
| SGTA (UniProt O43765) | 0.825 ± 0.07 | 0.80038 ± 0.00078 | 1.02 ± 0.14 | 0.972 ± 0.027 | 0.948 ± 0.048 | 0.938 ± 0.035 | 0.889 ± 0.1 | 1.02 ± 0.11 |
| M0QYZ2 and related entries (UniProt P53680) | 1.07 ± 0.11 | 1.14 ± 0.13 | 1.06 ± 0.15 | 1.12 ± 0.18 | 1.12 ± 0.13 | 1.08 ± 0.091 | 1.04 ± 0.081 | 1.07 ± 0.12 |
| NCK2 (UniProt O43639) | 1.04 ± 0.046 | 0.984 ± 0.027 | 0.972 ± 0.021 | 0.937 ± 0.038 | 0.927 ± 0.054 | 0.915 ± 0.074 | 0.929 ± 0.061 | 0.882 ± 0.085 |
